{"source": "the supplement of paper PMC4635364", "key": {"[1]": {"tested_on": "ReNCell VM", "test": "neuronal differentiation score (DCX+ cell fraction vs untreated, manual image score) (score (-3 to 3)); higher = more neuronal differentiation", "details": "2 uM, 2 weeks"}, "[2]": {"tested_on": "ReNCell VM", "test": "dopaminergic neuron differentiation score (TH+ cell fraction vs untreated, manual image score) (score (0 to 3)); higher = more TH+ dopaminergic neuron differentiation", "details": "2 uM, 4 weeks, BDNF 10 ng/ml + GDNF 10 ng/ml"}}, "note": "Structures can show the parent of a compound that is named as a salt. The list shows a part of the results. This data set is noisy: repeats of one test often differ as much as different tests do.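 Cells: ReNCell VM human fetal ventral-midbrain neural progenitors, differentiated mitogen-free. Blinded raters compared doublecortin-stained (early neurons) or tyrosine hydroxylase-stained (dopaminergic neurons) images with untreated wells, where 0 means no change. After repeats and both raters were averaged, compounds scoring 2 or above became hits for retesting.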 Where a SMILES comes first, the peptide text is derived from it."}
{"smiles": "CO/N=C(\\C(=O)N[C@@H]1C(=O)N2C(C(=O)OC(C)OC(C)=O)=C(COC(N)=O)CS[C@H]12)c1ccco1", "note": "(stereo partly drawn)", "values": [{"measurement": "neuronal differentiation score", "setting": "[1]; library: Spectrum", "value": "inactive: 0"}, {"measurement": "dopaminergic neuron differentiation score", "setting": "[2]; library: Spectrum", "value": "inactive: 0"}]}
{"smiles": "C#C[C@]1(O)CC[C@H]2[C@@H]3CCC4=CCCC[C@@H]4[C@H]3CC[C@@]21C", "note": "[Lynestrenol]", "values": [{"measurement": "neuronal differentiation score", "setting": "[1]; library: Prestwick", "value": "inactive: 0"}, {"measurement": "dopaminergic neuron differentiation score", "setting": "[2]; library: Prestwick", "value": "inactive: 0"}]}
{"smiles": "COc1ccc2c(c1)OCc1c-2oc2cc(OC)ccc12", "values": [{"measurement": "neuronal differentiation score", "setting": "[1]; library: Spectrum", "value": "inactive: 0"}, {"measurement": "dopaminergic neuron differentiation score", "setting": "[2]; library: Spectrum", "value": "inactive: 0"}]}
{"smiles": "Nc1nc(-c2ccc(Cl)c(Cl)c2)c(-c2ccncc2)s1", "note": "[CGH 2466 dihydrochloride]", "values": [{"measurement": "neuronal differentiation score", "setting": "[1]; library: Tocriscreen", "value": "inactive: 0"}, {"measurement": "dopaminergic neuron differentiation score", "setting": "[2]; library: Tocriscreen", "value": "inactive: 0"}]}
{"smiles": "CNCCC(Oc1ccc(C(F)(F)F)cc1)c1ccccc1", "note": "(stereo not drawn)", "values": [{"measurement": "neuronal differentiation score", "setting": "[1]; library: Spectrum", "value": "inactive: 0"}, {"measurement": "dopaminergic neuron differentiation score", "setting": "[2]; library: Spectrum", "value": "inactive: 0"}]}
{"smiles": "CC1(C)C2CCC1(C)C(O)C2", "note": "(stereo not drawn)", "values": [{"measurement": "neuronal differentiation score", "setting": "[1]; library: Spectrum", "value": "inactive: 0"}, {"measurement": "dopaminergic neuron differentiation score", "setting": "[2]; library: Spectrum", "value": "inactive: 0"}]}
{"smiles": "CCN1CCN(C(=O)N[C@@H](C(=O)N[C@@H]2C(=O)N3[C@@H]2SC(C)(C)[C@@H]3C(=O)O)c2ccccc2)C(=O)C1=O", "note": "[Piperacillin sodium salt]", "values": [{"measurement": "neuronal differentiation score", "setting": "[1]; library: Prestwick", "value": "inactive: 0"}, {"measurement": "dopaminergic neuron differentiation score", "setting": "[2]; library: Prestwick", "value": "inactive: 0"}]}
{"smiles": "COc1c(CC(=O)c2cc3c(cc2O)OC(C)(C)C(O)C3)ccc2c1C=CC(C)(C)O2", "note": "(stereo not drawn)", "values": [{"measurement": "neuronal differentiation score", "setting": "[1]; library: Spectrum", "value": "inactive: 0"}, {"measurement": "dopaminergic neuron differentiation score", "setting": "[2]; library: Spectrum", "value": "inactive: 0"}]}
{"smiles": "COc1cc(O)c2c(=O)c(O)c(-c3ccccc3)oc2c1", "values": [{"measurement": "neuronal differentiation score", "setting": "[1]; library: Spectrum", "value": "inactive: 0"}, {"measurement": "dopaminergic neuron differentiation score", "setting": "[2]; library: Spectrum", "value": "inactive: 0"}]}
{"smiles": "O=C(O)Cc1cc(I)c(Oc2ccc(O)c(I)c2)c(I)c1", "note": "[Tiratricol, 3,3',5-triiodothyroacetic acid]", "values": [{"measurement": "neuronal differentiation score", "setting": "[1]; library: Prestwick", "value": "inactive: 0"}, {"measurement": "dopaminergic neuron differentiation score", "setting": "[2]; library: Prestwick", "value": "inactive: 0"}]}
{"smiles": "CC1(C)C(=O)NC2=C1C(=O)C(=O)c1ccccc12", "values": [{"measurement": "neuronal differentiation score", "setting": "[1]; library: Tocriscreen", "value": "inactive: 0"}, {"measurement": "dopaminergic neuron differentiation score", "setting": "[2]; library: Tocriscreen", "value": "inactive: 0"}]}
{"smiles": "COc1ccc2cc3n(c(=O)c2c1OC)CCc1cc2c(cc1-3)OCO2", "note": "[Berlambine]", "values": [{"measurement": "neuronal differentiation score", "setting": "[1]; library: Phytochemical", "value": "inactive: 0"}, {"measurement": "dopaminergic neuron differentiation score", "setting": "[2]; library: Phytochemical", "value": "inactive: 0"}]}
{"smiles": "O=C(O)C1=CC(=C(c2ccc(O)c(C(=O)O)c2)c2ccc(O)c(C(=O)O)c2)C=CC1=O", "note": "[Aurintricarboxylic acid]", "values": [{"measurement": "neuronal differentiation score", "setting": "[1]; library: LOPAC", "value": "inactive: 0"}, {"measurement": "dopaminergic neuron differentiation score", "setting": "[2]; library: LOPAC", "value": "inactive: 0"}]}
{"smiles": "C[C@H]1O[C@@H](O[C@H]2[C@@H](O)C[C@H](O[C@H]3[C@@H](O)C[C@H](O[C@H]4CC[C@@]5(C)[C@H](CC[C@@H]6[C@@H]5C[C@@H](O)[C@]5(C)[C@@H](C7=CC(=O)OC7)CC[C@]65O)C4)O[C@@H]3C)O[C@@H]2C)C[C@H](O)[C@@H]1O", "note": "[Digoxin]", "values": [{"measurement": "neuronal differentiation score", "setting": "[1]; library: Prestwick", "value": "inactive: 0"}, {"measurement": "dopaminergic neuron differentiation score", "setting": "[2]; library: Prestwick", "value": "inactive: 0"}]}
{"smiles": "CS(=O)(=O)c1ccc([C@@H](O)[C@@H](CO)NC(=O)C(Cl)Cl)cc1", "values": [{"measurement": "neuronal differentiation score", "setting": "[1]; library: Spectrum", "value": "inactive: 0"}, {"measurement": "dopaminergic neuron differentiation score", "setting": "[2]; library: Spectrum", "value": "inactive: 0"}]}
{"smiles": "COC(=O)C1=C(C)NC(C)=C(C(=O)OCCN(C)Cc2ccccc2)C1c1cccc([N+](=O)[O-])c1", "note": "(stereo not drawn)", "values": [{"measurement": "neuronal differentiation score", "setting": "[1]; library: Spectrum", "value": "inactive: 0"}, {"measurement": "dopaminergic neuron differentiation score", "setting": "[2]; library: Spectrum", "value": "inactive: 0"}]}
{"smiles": "Nc1nc(=O)[nH]cc1F", "note": "[Flucytosine]", "values": [{"measurement": "neuronal differentiation score", "setting": "[1]; library: Prestwick", "value": "inactive: 0"}, {"measurement": "dopaminergic neuron differentiation score", "setting": "[2]; library: Prestwick", "value": "inactive: 0"}]}
{"smiles": "Nc1nc2c(cnn2CCc2ccccc2)c2nc(-c3ccco3)nn12", "values": [{"measurement": "neuronal differentiation score", "setting": "[1]; library: Tocriscreen", "value": "inactive: 0"}, {"measurement": "dopaminergic neuron differentiation score", "setting": "[2]; library: Tocriscreen", "value": "inactive: 0"}]}
{"smiles": "O=c1oc2cc(O)ccc2cc1-c1ccc2c(c1)OCCO2", "values": [{"measurement": "neuronal differentiation score", "setting": "[1]; library: Natural", "value": "inactive: 0"}, {"measurement": "dopaminergic neuron differentiation score", "setting": "[2]; library: Natural", "value": "inactive: 0"}]}
{"smiles": "CN(C)CCC[C@@]1(c2ccc(F)cc2)OCc2cc(C#N)ccc21", "note": "[Escitalopram]", "values": [{"measurement": "neuronal differentiation score", "setting": "[1]; library: Prestwick", "value": "inactive: 0"}, {"measurement": "dopaminergic neuron differentiation score", "setting": "[2]; library: Prestwick", "value": "inactive: 0"}]}
{"smiles": "Cc1ccc(/C(=C\\CN2CCCC2)c2ccccn2)cc1", "values": [{"measurement": "neuronal differentiation score", "setting": "[1]; library: Spectrum", "value": "inactive: 0"}, {"measurement": "dopaminergic neuron differentiation score", "setting": "[2]; library: Spectrum", "value": "inactive: 0"}]}
{"smiles": "C[N+](C)(C)CCCCCC[N+](C)(C)C", "note": "[Hexamethonium dibromide dihydrate]", "values": [{"measurement": "neuronal differentiation score", "setting": "[1]; library: Prestwick", "value": "inactive: 0"}, {"measurement": "dopaminergic neuron differentiation score", "setting": "[2]; library: Prestwick", "value": "inactive: 0"}]}
{"smiles": "Cc1noc(NS(=O)(=O)c2cccc3c(N(C)C)cccc23)c1C", "values": [{"measurement": "neuronal differentiation score", "setting": "[1]; library: Tocriscreen", "value": "inactive: 0"}, {"measurement": "dopaminergic neuron differentiation score", "setting": "[2]; library: Tocriscreen", "value": "inactive: 0"}]}
{"smiles": "CCN(CC)CCOCCOC(=O)C(CC)(CC)c1ccccc1", "values": [{"measurement": "neuronal differentiation score", "setting": "[1]; library: Spectrum", "value": "inactive: 0"}, {"measurement": "dopaminergic neuron differentiation score", "setting": "[2]; library: Spectrum", "value": "inactive: 0"}]}
{"smiles": "CC(Oc1ccc(Oc2cnc3ccc(Cl)cc3n2)cc1)C(=O)O", "note": "(stereo not drawn)", "values": [{"measurement": "neuronal differentiation score", "setting": "[1]; library: LOPAC", "value": "inactive: 0"}, {"measurement": "dopaminergic neuron differentiation score", "setting": "[2]; library: LOPAC", "value": "inactive: 0"}]}
{"smiles": "O=c1ccc2c(OCCCCc3ccccc3)c3ccoc3cc2o1", "note": "[Psora-4]", "values": [{"measurement": "neuronal differentiation score", "setting": "[1]; library: LOPAC", "value": "inactive: 0"}, {"measurement": "dopaminergic neuron differentiation score", "setting": "[2]; library: LOPAC", "value": "inactive: 0"}]}
{"smiles": "N[C@@H](CC(=O)O)C(=O)O", "values": [{"measurement": "neuronal differentiation score", "setting": "[1]; library: Spectrum", "value": "inactive: 0"}, {"measurement": "dopaminergic neuron differentiation score", "setting": "[2]; library: Spectrum", "value": "inactive: 0"}]}
{"smiles": "CCOC(=O)Nc1ccc2c(c1)N(C(=O)CCN1CCOCC1)c1ccccc1S2", "note": "[Moricizine hydrochloride]", "values": [{"measurement": "neuronal differentiation score", "setting": "[1]; library: Prestwick", "value": "inactive: 0"}, {"measurement": "dopaminergic neuron differentiation score", "setting": "[2]; library: Prestwick", "value": "inactive: 0"}]}
{"smiles": "CC1(C)O[C@@H]2C[C@H]3[C@@H]4C[C@H](F)C5=CC(=O)C=C[C@]5(C)[C@@]4(F)[C@@H](O)C[C@]3(C)[C@]2(C(=O)CO)O1", "values": [{"measurement": "neuronal differentiation score", "setting": "[1]; library: Spectrum", "value": "inactive: 0"}, {"measurement": "dopaminergic neuron differentiation score", "setting": "[2]; library: Spectrum", "value": "inactive: 0"}]}
{"smiles": "OC(CNCC(O)C1CCc2cc(F)ccc2O1)C1CCc2cc(F)ccc2O1", "note": "(stereo not drawn) [Nebivolol hydrochloride]", "values": [{"measurement": "neuronal differentiation score", "setting": "[1]; library: Tocriscreen", "value": "inactive: 1"}, {"measurement": "dopaminergic neuron differentiation score", "setting": "[2]; library: Tocriscreen", "value": "inactive: 0"}]}
{"smiles": "C[N+](C)(C)CC=O", "note": "[Betaine aldehyde chloride]", "values": [{"measurement": "neuronal differentiation score", "setting": "[1]; library: LOPAC", "value": "inactive: 0"}, {"measurement": "dopaminergic neuron differentiation score", "setting": "[2]; library: LOPAC", "value": "inactive: 0"}]}
{"smiles": "OC(c1cc(C(F)(F)F)nc2c(C(F)(F)F)cccc12)C1CCCCN1", "note": "(stereo not drawn)", "values": [{"measurement": "neuronal differentiation score", "setting": "[1]; library: Spectrum", "value": "inactive: 0"}, {"measurement": "dopaminergic neuron differentiation score", "setting": "[2]; library: Spectrum", "value": "inactive: 0"}]}
{"smiles": "CC(C)C[C@H](N)C(=O)N[C@@H](C)C(=O)O", "note": "(H-Leu-Ala-OH)", "values": [{"measurement": "neuronal differentiation score", "setting": "[1]; library: Spectrum", "value": "inactive: 0"}, {"measurement": "dopaminergic neuron differentiation score", "setting": "[2]; library: Spectrum", "value": "inactive: 0"}]}
{"smiles": "C=CCN1CCc2c(cc(O)c(O)c2Br)[C@@H](c2ccccc2)C1", "note": "[R(+)-6-Bromo-APB hydrobromide]", "values": [{"measurement": "neuronal differentiation score", "setting": "[1]; library: LOPAC", "value": "inactive: 0"}, {"measurement": "dopaminergic neuron differentiation score", "setting": "[2]; library: LOPAC", "value": "inactive: 0"}]}
